Measured values: paper PMC10656488
These are yes or no findings as the source states them, for the method shown. Binding seen in cells or lysates may run through a third protein. Some entries that bind do so weakly or less than the wild type.

Amino acid sequences for entries named in this document (tags omitted). Residues count along the entry.
UniProt P20029, residues 20-655: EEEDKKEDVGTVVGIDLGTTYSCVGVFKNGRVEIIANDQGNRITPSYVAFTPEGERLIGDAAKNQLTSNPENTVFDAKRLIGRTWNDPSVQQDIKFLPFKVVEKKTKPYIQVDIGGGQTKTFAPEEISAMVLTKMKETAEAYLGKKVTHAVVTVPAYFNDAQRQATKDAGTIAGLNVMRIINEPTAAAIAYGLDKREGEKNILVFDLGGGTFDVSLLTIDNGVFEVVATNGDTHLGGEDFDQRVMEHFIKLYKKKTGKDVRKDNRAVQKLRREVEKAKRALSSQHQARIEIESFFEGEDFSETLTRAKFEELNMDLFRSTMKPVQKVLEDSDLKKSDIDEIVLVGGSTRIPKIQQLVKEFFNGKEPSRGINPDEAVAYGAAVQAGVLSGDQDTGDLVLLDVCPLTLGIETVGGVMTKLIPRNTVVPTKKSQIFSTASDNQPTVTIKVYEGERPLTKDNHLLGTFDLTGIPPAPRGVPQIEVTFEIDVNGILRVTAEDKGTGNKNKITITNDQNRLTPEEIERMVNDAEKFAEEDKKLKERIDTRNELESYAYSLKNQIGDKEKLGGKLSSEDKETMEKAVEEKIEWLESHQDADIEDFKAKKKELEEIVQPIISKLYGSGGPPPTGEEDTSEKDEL
UniProt Q8K341: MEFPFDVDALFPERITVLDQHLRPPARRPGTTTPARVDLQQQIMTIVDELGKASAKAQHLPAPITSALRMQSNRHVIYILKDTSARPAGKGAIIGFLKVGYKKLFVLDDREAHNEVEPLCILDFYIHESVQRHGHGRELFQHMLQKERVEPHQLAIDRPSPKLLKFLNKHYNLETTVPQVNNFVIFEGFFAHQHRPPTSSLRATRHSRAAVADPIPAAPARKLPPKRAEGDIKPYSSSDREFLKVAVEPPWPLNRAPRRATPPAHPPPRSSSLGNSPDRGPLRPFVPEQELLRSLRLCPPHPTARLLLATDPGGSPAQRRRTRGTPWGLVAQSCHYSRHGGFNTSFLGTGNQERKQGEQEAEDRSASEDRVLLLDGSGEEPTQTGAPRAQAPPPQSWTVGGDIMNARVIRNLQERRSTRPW

Biological target: heat shock protein 5 (HSPA5) (mouse (endogenous in peritoneal macrophages)) (UniProt P20029)
Assay: co-IP

binding: binds
Substance: alpha-tubulin acetyltransferase 1 (ATAT1) (from UniProt Q8K341 1-421) (enzyme)
